Article PMC6755999
No constants are given. Whether binding was seen depends on the method and setting. Some results given as binding are weak or reduced against the parent protein; the word gives no strength. Blank lines part the entries; values can stand above or below the substance they belong to.

Protein sequences, listed by entry. Tags and fused reporters are not part of them. Lines headed by an entry give the natural chain unless they say otherwise; changes in a name come on top.
UniProt P08670: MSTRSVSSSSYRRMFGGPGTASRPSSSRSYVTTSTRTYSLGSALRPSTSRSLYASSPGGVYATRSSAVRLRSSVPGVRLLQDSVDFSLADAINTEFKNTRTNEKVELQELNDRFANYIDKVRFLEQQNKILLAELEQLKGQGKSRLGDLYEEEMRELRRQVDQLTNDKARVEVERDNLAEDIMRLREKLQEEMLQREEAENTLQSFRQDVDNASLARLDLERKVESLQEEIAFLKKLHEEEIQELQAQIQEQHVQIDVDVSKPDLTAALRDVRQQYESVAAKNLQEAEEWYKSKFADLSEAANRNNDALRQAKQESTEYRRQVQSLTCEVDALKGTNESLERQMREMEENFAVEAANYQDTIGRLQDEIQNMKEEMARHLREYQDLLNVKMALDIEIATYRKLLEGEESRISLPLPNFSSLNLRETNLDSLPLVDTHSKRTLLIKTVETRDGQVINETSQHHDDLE

Key:
His-tagged vimentin [1] = target: His-tagged vimentin (UniProt P08670); test: cryo-electron microscopy of filaments polymerised in vitro; soluble purified His-vimentin polymerised at 30 °C for 30 min, adsorbed on holey carbon grid, uranyl acetate, plunge-frozen, JEOL1400 at 120 kV; both purified
His-tagged vimentin [2] = target: His-tagged vimentin (UniProt P08670); test: immunofluorescence microscopy of filaments polymerised in vitro; purified His-vimentin polymerised with or without 150 mM NaCl at 30 °C for 30 min, stained with anti-vimentin (V9) and Alexa Fluor 488 secondary antibody, Zeiss ApoTome2; both purified
His-tagged vimentin [3] = target: His-tagged vimentin (UniProt P08670); test: co-sedimentation; self-assembly into filaments: purified His-vimentin 0.3 mg/mL in dialysis buffer, 150 mM NaCl added, 30 °C for 30 min, centrifuged at 100,000 x g for 20 min; supernatant and pellet on SDS-PAGE, Coomassie blue; both purified
[4] = target: His-tagged vimentin Y117D mutant (UniProt P08670); test: immunofluorescence microscopy of filaments polymerised in vitro; purified His-vimentin polymerised with or without 150 mM NaCl at 30 °C for 30 min, stained with anti-vimentin (V9) and Alexa Fluor 488 secondary antibody, Zeiss ApoTome2; both purified
[5] = target: His-tagged vimentin Y117F mutant (UniProt P08670); test: cryo-electron microscopy of filaments polymerised in vitro; soluble purified His-vimentin polymerised at 30 °C for 30 min, adsorbed on holey carbon grid, uranyl acetate, plunge-frozen, JEOL1400 at 120 kV; both purified
[6] = target: His-tagged vimentin Y117F mutant (UniProt P08670); test: immunofluorescence microscopy of filaments polymerised in vitro; purified His-vimentin polymerised with or without 150 mM NaCl at 30 °C for 30 min, stained with anti-vimentin (V9) and Alexa Fluor 488 secondary antibody, Zeiss ApoTome2; both purified
[7] = target: His-tagged vimentin Y117F mutant (UniProt P08670); test: co-sedimentation; self-assembly into filaments: purified His-vimentin 0.3 mg/mL in dialysis buffer, 150 mM NaCl added, 30 °C for 30 min, centrifuged at 100,000 x g for 20 min; supernatant and pellet on SDS-PAGE, Coomassie blue; both purified

binding (His-tagged vimentin [1]): binds
binding (His-tagged vimentin [2]): binds
binding (His-tagged vimentin [3]): binds
Substance: His-tagged vimentin (from UniProt P08670 1-466)

binding [4]: binds
Substance: His-tagged vimentin Y117D mutant (from UniProt P08670 1-466)

binding [5]: binds
binding [6]: binds
binding [7]: binds
Substance: His-tagged vimentin Y117F mutant (from UniProt P08670 1-466)
